{
  "source": "patent US6369101B1",
  "about": "“Therapeutic method to treat herpes virus infection” (Regents of the University of Minnesota, priority 1999, dated 2002)",
  "system": "HSV-1 strain E-377",
  "assay": "CPE inhibition assay, HSV-1 E377 in human foreskin fibroblast cells",
  "type": "cell-based, herpes simplex virus type 1",
  "details": "HFF cells",
  "description": "Stock solutions of the compounds used for the testing of antiviral activity against HSV-1 and HSV-2 were prepared in distilled water, filtered through 0.2 μm filter (Acrodisco®, Gelman Sciences, USA) and stored at room temperature until used.\nHuman laryngeal epithelial carcinoma cells (HEp-2, ATCC, Rockville, Md.) were used for testing of antiviral compounds by cytopathic effect (CPE) inhibition and plaque reduction assay. Primary human foreskin fibroblast cells (HFF) obtained from Dr. E. R. Kern (Department of Pediatrics, University of Alabama Medical School, 309 Bevill Biomedical Research Building, 845 19th Street South, Birmingham, Ala., 35294-2170), were used for cytopathic effect (CPE) inhibition assay. […]\nThe antiviral activity of the test compounds was determined against HSV-1 strain F, HSV-2 strain G (ATCC), HSV-1 strain E-377 and HSV-2 strain MS (Dr. E. R. Kern, see above), CMV strain AD 169 (NIH), HCMV (NIH), MCMV (NIH), and VZV strain Ellen (NIH). […]\nLow passage HFF cells were seeded into 96-well tissue culture plates 24 hours prior to use at a cell concentration of 2.5×10^4 cells per ml in 0.2 ml of DMEM supplemented with 10% fetal calf serum. […] The virus induced cytopathic effect (CPE) was monitored microscopically every day. […]",
  "note": "At least one structure is not confirmed: it was looked up by name or label, or the drawing left a doubt.",
  "data": [
    {"smiles": "CC1(C)CCC23CC[C@]4(C)C(CCC5[C@@]6(C)CCC(O)C(C)(C)C6CC[C@]54C)C2C1OC3=O", "note": "(stereo partly shown) [Allobetulin lactone, Allobetulin-Lactone]", "values": [
      {"measurement": "anti HSV-1 activity (in words)", "result": "significant activity"}
    ]}
  ]
}
